Data taken from US20190040132A1 (FRED HUTCHINSON CANCER RESEARCH CENTER, published 2019).
Results are given in words; binding and its absence hold for the method and conditions named. Some results given as binding are weak or reduced against the parent protein; the word gives no strength.

Sequences of proteins named here, by UniProt entry; tags and fusion partners are left off. A change or cut given only in a name is not applied to a line headed by its entry.
UniProt Q01973: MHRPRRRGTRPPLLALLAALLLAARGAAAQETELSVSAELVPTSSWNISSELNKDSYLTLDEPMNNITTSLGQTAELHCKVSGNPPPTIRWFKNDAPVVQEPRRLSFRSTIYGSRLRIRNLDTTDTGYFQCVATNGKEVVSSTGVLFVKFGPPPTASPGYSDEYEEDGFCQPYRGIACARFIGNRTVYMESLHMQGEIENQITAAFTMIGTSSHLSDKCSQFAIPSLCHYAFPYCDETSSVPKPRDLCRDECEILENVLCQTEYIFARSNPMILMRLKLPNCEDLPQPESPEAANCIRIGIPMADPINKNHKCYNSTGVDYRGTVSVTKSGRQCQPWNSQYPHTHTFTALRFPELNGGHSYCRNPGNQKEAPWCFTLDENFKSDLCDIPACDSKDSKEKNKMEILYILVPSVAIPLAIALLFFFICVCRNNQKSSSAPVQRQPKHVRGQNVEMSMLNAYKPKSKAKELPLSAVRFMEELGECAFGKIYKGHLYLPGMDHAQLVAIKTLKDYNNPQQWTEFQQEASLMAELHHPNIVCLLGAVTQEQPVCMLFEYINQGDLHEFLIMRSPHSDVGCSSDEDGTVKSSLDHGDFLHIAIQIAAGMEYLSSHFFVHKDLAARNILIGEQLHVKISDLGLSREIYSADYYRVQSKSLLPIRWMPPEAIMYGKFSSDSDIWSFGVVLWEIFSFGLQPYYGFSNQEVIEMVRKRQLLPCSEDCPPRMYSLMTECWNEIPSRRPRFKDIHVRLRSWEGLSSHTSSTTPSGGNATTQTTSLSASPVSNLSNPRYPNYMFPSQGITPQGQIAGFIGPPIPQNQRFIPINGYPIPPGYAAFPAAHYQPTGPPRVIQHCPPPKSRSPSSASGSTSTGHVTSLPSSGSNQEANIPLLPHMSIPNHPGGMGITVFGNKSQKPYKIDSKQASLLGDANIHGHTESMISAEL

Columns and labels:
[1] = target: human full-length ROR1 (ROR1_v1) (human) (UniProt Q01973); assay: immunoblot of CLL cell lysate with hybridoma supernatant
[2] = target: T1, human ROR1 peptide 786-…-814 (human); assay: cytometric bead array carrying ROR1 peptides
T1 sequence (peptide): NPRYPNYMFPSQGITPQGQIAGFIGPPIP

[3] = target: rhesus ROR1_v1 (rhesus macaque); assay: IHC on K562 cells and rhesus T cells expressing rhesus ROR1
[4] = target: human full-length ROR1 (ROR1_v1) (human) (UniProt Q01973); assay: IHC on FFPE tumor samples
[5] = target: human full-length ROR1 (ROR1_v1) (human) (UniProt Q01973); assay: IHC on FFPE K562/ROR1 cells
[6] = target: human full-length ROR1 (ROR1_v1) (human) (UniProt Q01973); assay: IHC on FFPE tumor tissue
[7] = target: human full-length ROR1 (ROR1_v1) (human) (UniProt Q01973); assay: IHC on FFPE lung cancer sub-types
[8] = target: human full-length ROR1 (ROR1_v1) (human) (UniProt Q01973); assay: immunoblot (WES) of CLL cell lysate
[9] = target: human full-length ROR1 (ROR1_v1) (human) (UniProt Q01973); assay: IHC on FFPE K562/ROR1 cells; also on CLL and MCL lymph nodes
[10] = target: human full-length ROR1 (ROR1_v1) (human) (UniProt Q01973); assay: IHC on FFPE cell lines; also immunoblot showing a 130 kDa band in K562/ROR1, CLL, MCL and tumor line lysates
[11] = target: human full-length ROR1 (ROR1_v1) (human) (UniProt Q01973); assay: IHC on ovarian cancer tissue microarrays
[12] = target: human full-length ROR1 (ROR1_v1) (human) (UniProt Q01973); assay: immunoblot of CLL and normal tissue lysates
[13] = target: human full-length ROR1 (ROR1_v1) (human) (UniProt Q01973); assay: IHC on FFPE CLL and MCL lymph nodes
[14] = target: human full-length ROR1 (ROR1_v1) (human) (UniProt Q01973); assay: summary of IHC and immunoblot in Example 4
[15] = target: human full-length ROR1 (ROR1_v1) (human) (UniProt Q01973); assay: summary of immunoblot and IHC in Example 3
[16] = target: rhesus ROR1_v1 (rhesus macaque); assay: IHC on K562 and rhesus T cells transduced with rhesus ROR1

Measured: binding

B1: anti-ROR1 monoclonal antibody 6D4 (antibody, V domains shown)
VH: SGPELVKPGTSVKMSCKASGYTFTDYYMNWVKQTHGKNLEWIGRVNPSNGNTDYNQKFKGKATLTVDKSLSTAYMQLSSLTSEDSAVYYCGRLAYWGQGSLVTVSA
VL: LTQSPASLAVSPGQRATISCKASQSVDYDGETYMNWYQQKSGQPPKLLIYAASNLESGIPARFSGSGSGTDFTLNIHPVEEEDAATYYCLQTLKNPYTFGGGTKLEIK
notes: Mouse monoclonal antibody from a hybridoma, used as supernatant or purified; also called mAb 6D4; clone 6D4
binds: all assays above
